No constants are given. Whether binding was seen depends on the method and setting. Binding seen in cells or lysates may run through a third protein. Some results given as binding are weak or reduced against the parent protein; the word gives no strength.
Molecular target: PD-L1 (human (endogenous in A375)) (UniProt Q9NZQ7)
Test: co-IP; endogenous co-IP from A375 lysate with control IgG, anti-PD-L1 or anti-UBQLN4 antibody, protein A/G agarose beads, washed with PBST (PBS pH 7.4, 0.1% Triton X-100)

Chains of the proteins cited; added tags and fusions are not shown. Residues count along the entry.
UniProt Q9NZQ7, residues 19-290: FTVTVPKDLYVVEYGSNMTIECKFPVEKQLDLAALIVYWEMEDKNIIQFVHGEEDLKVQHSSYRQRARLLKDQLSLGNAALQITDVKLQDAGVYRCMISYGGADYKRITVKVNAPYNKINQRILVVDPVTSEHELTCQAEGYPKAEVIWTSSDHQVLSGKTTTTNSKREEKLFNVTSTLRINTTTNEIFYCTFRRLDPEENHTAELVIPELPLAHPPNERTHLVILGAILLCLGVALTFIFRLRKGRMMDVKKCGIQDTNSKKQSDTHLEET
UniProt Q9NRR5: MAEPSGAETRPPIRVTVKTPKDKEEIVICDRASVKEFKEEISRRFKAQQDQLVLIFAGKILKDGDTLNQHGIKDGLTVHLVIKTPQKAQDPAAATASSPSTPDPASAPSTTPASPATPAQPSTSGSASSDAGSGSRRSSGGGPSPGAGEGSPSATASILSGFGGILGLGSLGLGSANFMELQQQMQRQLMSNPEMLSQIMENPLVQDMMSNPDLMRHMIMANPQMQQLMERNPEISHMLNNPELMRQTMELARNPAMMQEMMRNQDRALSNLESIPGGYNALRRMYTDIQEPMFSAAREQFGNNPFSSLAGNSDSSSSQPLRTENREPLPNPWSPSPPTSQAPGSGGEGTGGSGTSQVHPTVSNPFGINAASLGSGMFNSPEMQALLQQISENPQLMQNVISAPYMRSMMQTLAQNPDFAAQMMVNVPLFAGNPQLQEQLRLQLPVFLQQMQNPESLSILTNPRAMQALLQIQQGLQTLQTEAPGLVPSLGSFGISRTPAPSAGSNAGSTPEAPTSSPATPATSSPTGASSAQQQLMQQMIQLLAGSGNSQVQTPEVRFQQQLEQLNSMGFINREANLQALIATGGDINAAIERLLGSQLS

UBQLN4 (from UniProt Q9NRR5 1-601)
binding: binds
